# Assay results published in the supplement of paper PMC8728848.
# The list shows a part of the results.
# B1: cFel (Cyprinus carpio), P68512 (protein)
# chain: LDCTVIDGNLKQIDAGSGSVVGVNNLNETFVLIDNVFTKISGSLKHFSVGPAGQLGVNTANNIFKYQSGGFVQLAGLLKQVDAGGDQIIAGVNMYDDIYCLNMDANNKWPSSNTPWVQINGKLKYYSCGPYSCWGVNSNDQIFIMKDVSSNVCSGSGSFINIPGLLSMIEVATDGSVFGVNSQGNLYQRTGVTRSKPDGTDWISMVACPNGHKHVSFDLGVLWLVCVDGSIRKCILTD
# How the values were obtained:
# Assay in all cases: glycan array binding signal (z-score within array); higher = stronger binding
# Conditions in all cases: glycan notation: IUPAC condensed, linker removed
# [1] = target: Fuc(a1-2)[GalNAc(b1-3)]Gal
# Summary of the method: (§1)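 Negative Z-scores can be read as non-binding. The Z-score is calculated within each array and then averaged across arrays of one protein sequence at different concentrations or buffers and across linkers. Arrays, 3228 in all, were curated from the Consortium for Functional Glycomics database and kept only where the protein sequence was available.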
# Fuc(a1-3)GlcNAc = target: Fuc(a1-3)GlcNAc
# Summary of the method: as §1
# [2] = target: Fuc(a1-3)[Gal(b1-4)]Glc6S
# Summary of the method: as §1
# [3] = target: Fuc(a1-3)[Gal(b1-4)]GlcNAc
# Summary of the method: as §1
# [4] = target: Fuc(a1-3)[Gal(b1-4)]GlcNAc(b1-2)Man
# Summary of the method: as §1
# [5] = target: Fuc(a1-3)[Gal(b1-4)]GlcNAc(b1-2)Man(a1-3)[Fuc(a1-3)[Gal(b1-4)]GlcNAc(b1-2)Man(a1-6)]Man(b1-4)GlcNAc(b1-4)GlcNAc
# Summary of the method: as §1
# [6] = target: Fuc(a1-3)[Gal(b1-4)]GlcNAc(b1-2)Man(a1-3)[Fuc(a1-3)[Gal(b1-4)]GlcNAc(b1-2)Man(a1-6)]Man(b1-4)GlcNAc(b1-4)[Fuc(a1-6)]GlcNAc
# Summary of the method: as §1
# [7] = target: Fuc(a1-3)[Gal(b1-4)]GlcNAc(b1-3)Gal(b1-3)[Fuc(a1-4)]GlcNAc
# Summary of the method: as §1
# [8] = target: Fuc(a1-3)[Gal(b1-4)]GlcNAc(b1-3)Gal(b1-4)[Fuc(a1-3)]GlcNAc
# Summary of the method: as §1
# [9] = target: Fuc(a1-3)[Gal(b1-4)]GlcNAc(b1-3)Gal(b1-4)[Fuc(a1-3)]GlcNAc(b1-3)Gal(b1-4)[Fuc(a1-3)]GlcNAc
# Summary of the method: as §1
# [10] = target: Fuc(a1-3)[Gal(b1-4)]GlcNAc(b1-3)GalNAc
# Summary of the method: as §1
# [11] = target: Fuc(a1-3)[Gal(b1-4)]GlcNAc(b1-6)GalNAc
# Summary of the method: as §1
# [12] = target: Fuc(a1-3)[Gal(b1-4)]GlcNAc(b1-6)[Gal(b1-3)GlcNAc(b1-3)]Gal(b1-4)Glc
# Summary of the method: as §1
# [13] = target: Fuc(a1-3)[Gal(b1-4)]GlcNAc6S
# Summary of the method: as §1
# [14] = target: Fuc(a1-3)[Gal3S(b1-4)]Glc
# Summary of the method: as §1
# [15] = target: Fuc(a1-3)[Gal3S(b1-4)]GlcNAc
# Summary of the method: as §1
# [16] = target: Fuc(a1-3)[Gal3S(b1-4)]GlcNAc6S
# Summary of the method: as §1
# [17] = target: Fuc(a1-3)[GalNAc(b1-4)]GlcNAc
# Summary of the method: as §1
# [18] = target: Fuc(a1-3)[GalNAc(b1-4)]GlcNAc6S
# Summary of the method: as §1
# Fuc(a1-4)GlcNAc = target: Fuc(a1-4)GlcNAc
# Summary of the method: as §1
# Fuc(b1-3)GlcNAc = target: Fuc(b1-3)GlcNAc
# Summary of the method: as §1
# Gal(a1-2)Gal = target: Gal(a1-2)Gal
# Summary of the method: as §1
# Gal(a1-3)Gal = target: Gal(a1-3)Gal
# Summary of the method: as §1
# Gal(a1-3)Gal(b1-3)GlcNAc = target: Gal(a1-3)Gal(b1-3)GlcNAc
# Summary of the method: as §1
# [19] = target: Gal(a1-3)Gal(b1-3)GlcNAc(b1-2)Man
# Summary of the method: as §1
# [20] = target: Gal(a1-3)Gal(b1-3)GlcNAc(b1-2)Man(a1-3)[Gal(a1-3)Gal(b1-3)GlcNAc(b1-2)Man(a1-6)]Man(b1-4)GlcNAc(b1-4)GlcNAc
# Summary of the method: as §1
# [21] = target: Gal(a1-3)Gal(b1-3)GlcNAc(b1-3)GalNAc
# Summary of the method: as §1
# [22] = target: Gal(a1-3)Gal(b1-3)GlcNAc(b1-6)GalNAc
# Summary of the method: as §1
# [23] = target: Gal(a1-3)Gal(b1-3)[Fuc(a1-4)]GlcNAc(b1-2)Man(a1-3)[Gal(a1-3)Gal(b1-3)[Fuc(a1-4)]GlcNAc(b1-2)Man(a1-6)]Man(b1-4)GlcNAc(b1-4)GlcNAc
# Summary of the method: as §1
# Gal(a1-3)Gal(b1-4)Glc = target: Gal(a1-3)Gal(b1-4)Glc
# Summary of the method: as §1
# Gal(a1-3)Gal(b1-4)GlcNAc = target: Gal(a1-3)Gal(b1-4)GlcNAc
# Summary of the method: as §1
# [24] = target: Gal(a1-3)Gal(b1-4)GlcNAc(b1-2)Man
# Summary of the method: as §1
# [25] = target: Gal(a1-3)Gal(b1-4)GlcNAc(b1-2)Man(a1-3)[Gal(a1-3)Gal(b1-4)GlcNAc(b1-2)Man(a1-6)]Man(b1-4)GlcNAc(b1-4)GlcNAc
# Summary of the method: as §1
# [26] = target: Gal(a1-3)Gal(b1-4)GlcNAc(b1-3)GalNAc
# Summary of the method: as §1
# [27] = target: Gal(a1-3)Gal(b1-4)GlcNAc(b1-6)GalNAc
# Summary of the method: as §1
# [28] = target: Gal(a1-3)Gal(b1-4)[Fuc(a1-3)]GlcNAc
# Summary of the method: as §1
# [29] = target: Gal(a1-3)Gal(b1-4)[Fuc(a1-3)]GlcNAc(b1-2)Man(a1-3)[Gal(a1-3)Gal(b1-4)[Fuc(a1-3)]GlcNAc(b1-2)Man(a1-6)]Man(b1-4)GlcNAc(b1-4)GlcNAc
# Summary of the method: as §1
# Gal(a1-3)GalNAc = target: Gal(a1-3)GalNAc
# Summary of the method: as §1
# [30] = target: Gal(a1-3)[Gal(a1-4)]Gal(b1-4)GlcNAc
# Summary of the method: as §1
# [31] = target: Gal(a1-4)Gal(b1-3)GlcNAc(b1-2)Man(a1-3)[Gal(a1-4)Gal(b1-3)GlcNAc(b1-2)Man(a1-6)]Man(b1-4)GlcNAc(b1-4)GlcNAc
# Summary of the method: as §1
# Gal(a1-4)Gal(b1-4)Glc = target: Gal(a1-4)Gal(b1-4)Glc
# Summary of the method: as §1
# Gal(a1-4)Gal(b1-4)GlcNAc = target: Gal(a1-4)Gal(b1-4)GlcNAc
# Summary of the method: as §1
# [32] = target: Gal(a1-4)Gal(b1-4)GlcNAc(b1-2)Man(a1-3)[Gal(a1-4)Gal(b1-4)GlcNAc(b1-2)Man(a1-6)]Man(b1-4)GlcNAc(b1-4)GlcNAc
# Summary of the method: as §1
# [33] = target: Gal(a1-4)Gal(b1-4)GlcNAc(b1-3)Gal(b1-4)Glc
# Summary of the method: as §1
# Gal(a1-4)GlcNAc = target: Gal(a1-4)GlcNAc
# Summary of the method: as §1
binder,measurement,setting,value
B1,glycan array binding signal (z-score),[1],1.52
same,glycan array binding signal (z-score),Fuc(a1-3)GlcNAc,-1.02
same,glycan array binding signal (z-score),[2],0.408
same,glycan array binding signal (z-score),[3],-0.26
same,glycan array binding signal (z-score),[4],1.26
same,glycan array binding signal (z-score),[5],1.84
same,glycan array binding signal (z-score),[6],0.633
same,glycan array binding signal (z-score),[7],0.265
same,glycan array binding signal (z-score),[8],-0.327
same,glycan array binding signal (z-score),[9],-0.301
same,glycan array binding signal (z-score),[10],-0.581
same,glycan array binding signal (z-score),[11],0.701
same,glycan array binding signal (z-score),[12],0.837
same,glycan array binding signal (z-score),[13],0.043
same,glycan array binding signal (z-score),[14],-0.663
same,glycan array binding signal (z-score),[15],1.83
same,glycan array binding signal (z-score),[16],-0.671
same,glycan array binding signal (z-score),[17],1.39
same,glycan array binding signal (z-score),[18],-0.354
same,glycan array binding signal (z-score),Fuc(a1-4)GlcNAc,-0.963
same,glycan array binding signal (z-score),Fuc(b1-3)GlcNAc,0.178
same,glycan array binding signal (z-score),Gal(a1-2)Gal,0.284
same,glycan array binding signal (z-score),Gal(a1-3)Gal,-1.12
same,glycan array binding signal (z-score),Gal(a1-3)Gal(b1-3)GlcNAc,-0.677
same,glycan array binding signal (z-score),[19],0.809
same,glycan array binding signal (z-score),[20],-0.427
same,glycan array binding signal (z-score),[21],-0.742
same,glycan array binding signal (z-score),[22],0.326
same,glycan array binding signal (z-score),[23],1.49
same,glycan array binding signal (z-score),Gal(a1-3)Gal(b1-4)Glc,-0.401
same,glycan array binding signal (z-score),Gal(a1-3)Gal(b1-4)GlcNAc,0.862
same,glycan array binding signal (z-score),[24],-0.902
same,glycan array binding signal (z-score),[25],-0.239
same,glycan array binding signal (z-score),[26],-1.1
same,glycan array binding signal (z-score),[27],-0.149
same,glycan array binding signal (z-score),[28],0.942
same,glycan array binding signal (z-score),[29],0.223
same,glycan array binding signal (z-score),Gal(a1-3)GalNAc,-0.513
same,glycan array binding signal (z-score),[30],-0.299
same,glycan array binding signal (z-score),[31],-0.502
same,glycan array binding signal (z-score),Gal(a1-4)Gal(b1-4)Glc,-1.02
same,glycan array binding signal (z-score),Gal(a1-4)Gal(b1-4)GlcNAc,-0.32
same,glycan array binding signal (z-score),[32],-0.901
same,glycan array binding signal (z-score),[33],1.15
same,glycan array binding signal (z-score),Gal(a1-4)GlcNAc,-0.218

# Three entries picked at random from the list so far:
binder,measurement,setting,value
B1,glycan array binding signal (z-score),[4],1.26
same,glycan array binding signal (z-score),[3],-0.26
same,glycan array binding signal (z-score),[8],-0.327
